The text below walks through data of patent US11149009B2, “Fused piperidinyl bicyclic and related compounds as modulators of C5A receptor” (InflaRx GmbH, priority 2019, dated 2021).

Amino acid sequences for entries named in this document (tags omitted).
UniProt P21730, whole entry: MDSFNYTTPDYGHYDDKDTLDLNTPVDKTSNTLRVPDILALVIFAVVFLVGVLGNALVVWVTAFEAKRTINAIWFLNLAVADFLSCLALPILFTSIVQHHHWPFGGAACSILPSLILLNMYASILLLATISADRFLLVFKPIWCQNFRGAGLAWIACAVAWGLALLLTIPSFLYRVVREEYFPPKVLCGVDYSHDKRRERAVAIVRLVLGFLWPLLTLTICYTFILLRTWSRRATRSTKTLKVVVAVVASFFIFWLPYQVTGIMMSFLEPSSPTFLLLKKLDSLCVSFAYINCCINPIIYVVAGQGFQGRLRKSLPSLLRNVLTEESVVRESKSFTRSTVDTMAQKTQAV

This assay concerns the target C5a receptor (Homo sapiens (Human), UniProt P21730). The experiment in a line: Calcium mobilization assay (C5a-induced, U937 cells). The following applies: inhibition of C5a-induced calcium mobilization. The procedure: U937 cells (ATCC® CRL-1593.2) were cultivated in RPMI1640 medium supplemented with 10% fetal bovine serum in a standard cell culture incubator. The day before conducting the assay, Dibutyryl-cAMP (0.5 mM working concentration) was added to cell cultures. Next day, cells were spun and resuspended in RPMI 1640 to a concentration of 40,000 cells per 50 μl. 40,000 cells were plated in one well in a 96 well poly-D-lysine coated plate for two hours to allow cells to adhere. After cell adherence, cytoplasmic calcium^++ indicator (FLIPR Calcium 6 Assay Kit, Molecular Devices) was added to each well and incubated for 75 minutes at 37° C. Test compounds were diluted using a robotic liquid handler. […] The cell culture plates were then incubated at room temperature for 30 minutes before being placed into Flexstation-3 plate reader (Molecular Devices). The Flexstation-3 was programmed to add recombinant C5a protein at various concentrations (1 nM to 10 nM) to cell culture plates and to monitor the change of fluorescence intensity, which correlates with cytoplasmic calcium concentration. […]
The half maximal inhibitory concentrations, i.e. IC50, were determined in biological assays, such as calcium mobilization assay. Using the calcium mobilization assay the following IC50 values were determined by the best dose-response curve fitting method. […]
(A change in cytosolic calcium serves as a functional read-out for many receptors and channels.)

Structures were worked out from names or drawings and are uncertain. Bounds are passed on as bounds.

As a reminder, the IC50 is the midpoint of a concentration-inhibition curve. `Cc1ccc(NC(=O)[C@H]2C[C@@H](C(F)(F)F)CN(C(=O)c3c(C)cccc3C)[C@H]2c2ccc(NC3CCCC3)cc2)cc1C(F)(F)F`: the IC50 is below 10 nM.
